Measured values reported in publication PMC2640461.
Where two headings read alike, the source gives them in different places. Results are given in words; binding and its absence hold for the method and conditions named. In cells and extracts the contact can be indirect. Some binding calls cover weakened binding; strength is not graded here.

Sequences of proteins named here, by UniProt entry; tags and fusion partners are left off.
UniProt Q08297: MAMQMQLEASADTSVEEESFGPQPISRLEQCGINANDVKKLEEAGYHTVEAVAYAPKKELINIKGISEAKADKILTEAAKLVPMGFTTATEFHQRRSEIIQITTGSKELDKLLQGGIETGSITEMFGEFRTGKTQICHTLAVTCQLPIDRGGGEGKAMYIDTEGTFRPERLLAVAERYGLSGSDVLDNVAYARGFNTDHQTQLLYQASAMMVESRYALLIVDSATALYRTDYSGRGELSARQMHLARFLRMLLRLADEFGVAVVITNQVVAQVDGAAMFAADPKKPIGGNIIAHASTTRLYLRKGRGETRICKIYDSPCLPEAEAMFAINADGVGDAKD

T1: SYCE2 (mouse (endogenous in testis)) (UniProt Q505B8)
T1 sequence: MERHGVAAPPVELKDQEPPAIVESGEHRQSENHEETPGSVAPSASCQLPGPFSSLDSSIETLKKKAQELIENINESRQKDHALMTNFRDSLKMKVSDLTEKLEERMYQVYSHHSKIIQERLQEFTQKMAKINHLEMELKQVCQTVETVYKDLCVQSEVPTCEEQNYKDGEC


Legend:
[1] = molecular target: T1, SYCE2 (mouse (endogenous in testis)); assay: co-IP; extracts (0.5 mg-1.5 ml) from adult wild-type and Syce1-/- mouse testes incubated with anti-SYCE2 antibodies (10 ul) or pre-immune serum (5 ul); precipitates analysed by Western blotting (anti-RAD51 or anti-SYCP3); control IP from Syce2-/- testis extract
[2] = molecular target: T1, SYCE2 (mouse (endogenous in testis)); assay: as above; remark: listed apart in the source

| Molecule | binding [1] | binding [2] |
| --- | --- | --- |
| RAD51 (from UniProt Q08297 1-339) | binds weakly |  |
| SYCP3 (protein, UniProt P70281 1-254) MLRGCGDSDSSPEPLSKHLKMVPGGRKHSGKSGKPPLVDQPKKAFDFEKDDKDLSGSEEDVADEKAPVIDKHGKKRSAGIIEDVGGEVQNMLEKFGADINKALLAKRKRIEMYTKASFKASNQKIEQIWKTQQEEIQKLNNEYSQQFMNVLQQWELDIQKFEEQGEKLSNLFRQQQKIFQQSRIVQSQRMFAMKQIHEQFIKSLEDVEKNNDNLFTGTQSELKKEMAMLQKKVMMETQQQEMANVRKSLQSMLF |  | no binding |
